From US8309544B2, “Spiroindalones” (Merck Sharp & Dohme Corp., priority 2007, dated 2012)
Some results were stated once for a whole list of compounds, not compound by compound.

Chains of the proteins cited; added tags and fusions are not shown. Lines headed by an entry give the natural chain unless they say otherwise; changes in a name come on top.
UniProt Q9GZT9: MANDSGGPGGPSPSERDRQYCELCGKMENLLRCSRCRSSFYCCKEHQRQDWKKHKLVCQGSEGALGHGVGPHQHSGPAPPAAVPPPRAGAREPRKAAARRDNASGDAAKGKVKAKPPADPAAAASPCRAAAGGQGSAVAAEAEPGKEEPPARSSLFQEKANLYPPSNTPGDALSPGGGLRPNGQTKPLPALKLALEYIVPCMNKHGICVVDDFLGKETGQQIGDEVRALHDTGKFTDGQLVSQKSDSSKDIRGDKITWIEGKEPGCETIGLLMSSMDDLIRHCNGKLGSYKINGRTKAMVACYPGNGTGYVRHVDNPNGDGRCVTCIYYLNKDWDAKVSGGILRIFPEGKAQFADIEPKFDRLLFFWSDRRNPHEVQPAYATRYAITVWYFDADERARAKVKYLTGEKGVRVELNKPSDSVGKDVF

What follows are molecules tested against T1, FLAG-tagged full length PHD2 (Homo sapiens, UniProt Q9GZT9) (assay: PHD2 inhibition assay, time resolved fluorescence (HIF-1α peptide hydroxylation / VHL complex detection)). Settings: 0.2 μM 2-oxoglutarate and 0.5 μM HIF-1α peptide; 30 min preincubation, 2 hr at room temperature.
T1 construct: FLAG-tagged full length PHD2; FLAG; made in house; host or cells: baculovirus-infected Sf9 cells
Assay type: biochemical

IC50, ≤ 1000 nM:
Cn1ccnc1CN1CCC2(CC1)C(=O)N(c1ccc3nc(C(F)(F)F)ccc3c1)c1ccccc12 [Example 18, 1′-[(1-methyl-1H-imidazol-2-yl)methyl]-1-[2-(trifluoromethyl)quinolin-6-yl]spiro[indole-3,4′-piperidin]-2(1H)-one]
Cn1ccnc1CN1CCC2(CC1)C(=O)N(c1ccc3ncccc3c1)c1ccccc12 [Example 33, 1′-[(1-methyl-1H-imidazol-2-yl)methyl]-1-quinolin-6-ylspiro[indole-3,4′-piperidin]-2(1H)-one]
Cc1cc(N2C(=O)C3(CCN(Cc4ncccc4C)CC3)c3ccccc32)ccc1-c1ccccc1 [Example 12, 1-(2-methylbiphenyl-4-yl)-1′-[(3-methylpyridin-2-yl)methyl]spiro[indole-3,4′-piperidin]-2(1H)-one]
Cc1cccnc1CN1CCC2(CC1)C(=O)N(c1ccc3cc(C#N)c(C#N)cc3c1)c1ccccc12 [Example 11, 6-[1′-[(3-methylpyridin-2-yl)methyl]-2-oxospiro[indole-3,4′-piperidin]-1(2H)-yl]naphthalene-2,3-dicarbonitrile]
O=C(O)Cn1ccnc1CN1CCC2(CC1)C(=O)N(c1ccc(-c3ccncc3)cc1)c1ccccc12 [Example 53, (2-{[2-oxo-1-(4-pyridin-4-ylphenyl)-1,2-dihydro-1′H-spiro[indole-3,4′-piperidin]-1′-yl]methyl}-1H-imidazol-1-yl)acetic acid]
NC(=O)c1cccnc1CN1CCC2(CC1)C(=O)N(c1ccc(-c3ccccc3)cc1)c1ccccc12 [Example 61, 2-[(1-biphenyl-4-yl-2-oxo-1,2-dihydro-1′H-spiro[indole-3,4′-piperidin]-1′-yl)methyl]nicotinamide]
Cc1cccnc1CN1CCC2(CC1)C(=O)N(c1ccc(-c3cccs3)cc1)c1ccccc12 [Example 56, 1′-[(3-methylpyridin-2-yl)methyl]-1-[4-(2-thienyl)phenyl]spiro[indole-3,4′-piperidin]-2(1H)-one]
Cc1cccnc1CN1CCC2(CC1)C(=O)N(c1ccc3c(c1)Cc1ccccc1-3)c1ccccc12 [Example 58, 1-(9H-fluoren-2-yl)-1′-[(3-methylpyridin-2-yl)methyl]spiro[indole-3,4′-piperidin]-2(1H)-one]
Cn1ccnc1CN1CCC2(CC1)C(=O)N(c1cnc3cc(Cl)ccc3c1)c1ccccc12 [Example 37, 1-(7-chloroquinolin-3-yl)-1′-[(1-methyl-1H-imidazol-2-yl)methyl]spiro[indole-3,4′-piperidin]-2(1H)-one]
Cn1ccnc1CN1CCC2(CC1)C(=O)N(c1ccc3cc(Cl)nnc3c1)c1ccccc12 [Example 26, 1-(3-chlorocinnolin-7-yl)-1′-[(1-methyl-1H-imidazol-2-yl)methyl]spiro[indole-3,4′-piperidin]-2(1H)-one]
O=C1N(c2cnc3ccccc3c2)c2ccccc2C12CCN(Cc1nccn1Cc1ccccc1)CC2 [Example 48, 1′-[(1-benzyl-1H-imidazol-2-yl)methyl]-1-quinolin-3-ylspiro[indole-3,4′-piperidin]-2(1H)-one]
Cc1ccc(-c2ccc(N3C(=O)C4(CCN(Cc5ncccc5C)CC4)c4ccccc43)cc2)cc1 [Example 54, 1-(4′-methylbiphenyl-4-yl)-1′-[(3-methylpyridin-2-yl)methyl]spiro[indole-3,4′-piperidin]-2(1H)-one]
Cc1cccnc1CN1CCC2(CC1)C(=O)N(c1ccc3c(c1)OCCN3C)c1ccccc12 [Example 14, 1-(4-methyl-3,4-dihydro-2H-1,4-benzoxazin-7-yl)1′-[(3-methylpyridin-2-yl)methyl]spiro[indole-3,4′-piperidin]-2(1H)-one]
Cn1ccnc1CN1CCC2(CC1)C(=O)N(c1ccc3cc(C(F)(F)F)cnc3c1)c1ccccc12 [Example 20, 1′-[(1-methyl-1H-imidazol-2-yl)methyl]-1-[3-(trifluoromethyl)quinolin-7-yl]spiro[indole-3,4′-piperidin]-2(1H)-one]
Cn1ccnc1CN1CCC2(CC1)C(=O)N(c1cnc3cc(C(F)(F)F)ccc3c1)c1ccccc12 [Example 8, 1′-[(1-methyl-1H-imidazol-2-yl)methyl]-1-[7-(trifluoromethyl)quinolin-3-yl]spiro[indole-3,4′-piperidin]-2(1H)-one]
CC(C(=O)O)n1ccnc1CN1CCC2(CC1)C(=O)N(c1ccc(-c3ccncc3)cc1)c1ccccc12 (stereo not shown) [Example 62, 2-(2-{[2-oxo-1-(4-pyridin-4-ylphenyl)-1,2-dihydro-1′H-spiro[indole-3,4′-piperidin]-1′-yl]methyl}-1H-imidazol-1-yl)propanoic acid]
NC(=O)Cn1ccnc1CN1CCC2(CC1)C(=O)N(c1ccc(-c3ccncc3)cc1)c1ccccc12 [Example 64, 2-(2-{[2-oxo-1-(4-pyridin-4-ylphenyl)-1,2-dihydro-1′H-spiro[indole-3,4′-piperidin]-1′-yl)methyl}-1H-imidazol-1-yl)acetamide]
Cn1ccnc1CN1CCC2(CC1)C(=O)N(c1ccc3nc(C(F)(F)F)cnc3c1)c1ccccc12 [Example 21, 1′[(1-methyl-1H-imidazol-2-yl)methyl]-1-[2-(trifluoromethyl)quinoxalin-6-yl]spiro[indole-3,4′-piperidin]-2(1H)-one]
Cn1ccnc1CN1CCC2(CC1)C(=O)N(c1ccc(O)nc1)c1ccccc12 [Example 40, 1-(6-hydroxypyridin-3-yl)-1′-[(1-methyl-1H-imidazol-2-yl)methyl]spiro[indole-3,4′-piperidin]-2(1H)-one]
COC(=O)c1ccc2cc(N3C(=O)C4(CCN(Cc5ncccc5C)CC4)c4ccccc43)ccc2c1 [Example 7, methyl 6-[1′-[(3-methylpyridin-2-yl)methyl]-2-oxospiro[indole-3,4′-piperidin]-1(2H)-yl]-2-naphthoate]
COc1ccc(-c2ccc(N3C(=O)C4(CCN(Cc5ncccc5C)CC4)c4ccccc43)cc2)cc1 [Example 13, 1-(4′-methoxybiphenyl-4-yl)-1′-[(3-methylpyridin-2-yl)methyl]spiro[indole-3,4′-piperidin]-2(1H)-one]
Cc1cccnc1CN1CCC2(CC1)C(=O)N(c1ccc(-c3ccc(F)cc3)cc1)c1ccccc12 [Example 15, 1-(4′-fluorobiphenyl-4-yl)-1′-[(3-methylpyridin-2-yl)methyl]spiro[indole-3,4′-piperidin]2(1H)-one]
Cc1cccnc1CN1CCC2(CC1)C(=O)N(c1ccc(-n3cccc3)cc1)c1ccccc12 [Example 16, 1′-[(3-methylpyridin-2-yl)methyl]-1-[4-(1H-pyrrol-1-yl)phenyl]spiro[indole-3,4′-piperidin]-2(1H)-one]
Cc1cccnc1CN1CCC2(CC1)C(=O)N(c1ccc(-c3ccc(C(C)(C)C)cc3)cc1)c1ccccc12 [Example 17, 1-(4′-tert-butylbiphenyl-4-yl)-1′-[(3-methylpyridin-2-yl)methyl]spiro[indole-3,4′-piperidin]-2(1H)-one]
Cc1cccnc1CN1CCC2(CC1)C(=O)N(c1ccc(-c3cccc(F)c3)cc1)c1ccccc12 [Example 52, 1-(3′-fluorobiphenyl-4-yl)-1′-[(3-methylpyridin-2-yl)methyl]spiro[indole-3,4′-piperidin]-2(1H)-one]
Cc1cnc(CN2CCC3(CC2)C(=O)N(c2cnc4ccccc4c2)c2ccccc23)c(C)c1 [Example 47, 1′-[(3,5-dimethylpyridin-2-yl)methyl]-1-quinolin-3-ylspiro[indole-3,4′-piperidin]-2(1H)-one]
Cc1cccnc1CN1CCC2(CC1)C(=O)N(c1ccc(-c3ccsc3)cc1)c1ccccc12 [Example 57, 1′-[(3-methylpyridin-2-yl)methyl]-1-[4-(3-thienyl)phenyl]spiro[indole-3,4′-piperidin]-2(1H)-one]
Cn1ccnc1CN1CCC2(CC1)C(=O)N(c1ccc3cc(C(F)(F)F)ncc3c1)c1ccccc12 [Example 19, 1′[(1-methyl-1H-imidazol-2-yl)methyl]-1-[3-(trifluoromethyl)isoquinolin-7-yl]spiro[indole-3,4′-piperidin]-2(1H)-one]
O=C(O)CCn1ccnc1CN1CCC2(CC1)C(=O)N(c1ccc(-c3ccncc3)cc1)c1ccccc12 [Example 63, 3-(2-{[2-oxo-1-(4-pyridin-4-ylphenyl)-1,2-dihydro-1′H-spiro[indole-3,4′-piperidin]-1′-yl]methyl}-1H-imidazol-1-yl)propanoic acid]
Cc1cc(=O)c2cc(N3C(=O)C4(CCN(Cc5nccn5C)CC4)c4ccccc43)ccc2o1 [Example 31, 1′-[(1-methyl-1H-imidazol-2-yl)methyl]-1-(2-methyl-4-oxo-4H-chromen-6-yl)spiro[indole-3,4′-piperidin]-2(1H)-one]
Cc1cccnc1CN1CCC2(CC1)C(=O)N(c1ccc3c(c1)C(=O)c1ccccc1-3)c1ccccc12 [Example 59, 1′-[(3-methylpyridin-2-yl)methyl]-1-(9-oxo-9H-fluoren-2-yl)spiro[indole-3,4′-piperidin]-2(1H)-one]
Cc1cnccc1-c1ccc(N2C(=O)C3(CCN(Cc4ncccc4C)CC3)c3ccccc32)cc1 [Example 68, 1′-[(3-methylpyridin-2-yl)methyl]-1-[4-(3-methylpyridin-4-yl)phenyl]spiro[indole-3,4′-piperidin]-2(1H)-one]
Cc1cccnc1CN1CCC2(CC1)C(=O)N(c1ccc(-c3ccncc3)cc1)c1ccccc12 [Example 50, 1′-[(3-methylpyridin-2-yl)methyl]-1-(4-pyridin-4-ylphenyl)spiro[indole-3,4′-piperidin]-2(1H)-one]
COc1ccc2cc(N3C(=O)C4(CCN(Cc5nccn5C)CC4)c4ccccc43)cnc2c1 [Example 36, 1-(7-methoxyquinolin-3-yl)-1′-[(1-methyl-1H-imidazol-2-yl)methyl]spiro[indole-3,4′-piperidin]-2(1H)-one]
